Experimental data from publication PMC4860958.

Target: T1, HA-tagged Yorkie (Yki) (Drosophila) (UniProt Q45VV3)
T1 sequence: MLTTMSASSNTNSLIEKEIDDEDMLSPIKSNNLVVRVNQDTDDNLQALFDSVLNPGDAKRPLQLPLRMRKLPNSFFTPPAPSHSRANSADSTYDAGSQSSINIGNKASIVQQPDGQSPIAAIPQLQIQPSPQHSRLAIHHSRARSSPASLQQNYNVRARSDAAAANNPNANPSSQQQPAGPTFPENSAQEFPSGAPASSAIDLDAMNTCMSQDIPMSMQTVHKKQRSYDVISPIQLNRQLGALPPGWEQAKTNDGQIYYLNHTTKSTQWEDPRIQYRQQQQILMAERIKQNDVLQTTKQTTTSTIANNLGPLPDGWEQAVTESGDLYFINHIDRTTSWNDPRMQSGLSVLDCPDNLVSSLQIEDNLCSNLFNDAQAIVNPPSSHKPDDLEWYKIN
Assay: co-IP; S2 cells transfected with the indicated Tai and Yki constructs, harvested 48 h after transfection; immunoprecipitation and western blot with the indicated antibodies

- binding: binds
Substance: Taiman (Tai), full length (Drosophila)

Results are given in words; binding and its absence hold for the method and conditions named. Binding seen in cells or lysates may run through a third protein. A result given as binding can be weak or reduced; the word gives no strength. Where a sequence is shown, tags or fusion partners need not be part of it.
